Binding result and Kd data for 1 sequence are collected here from publication PMC12596195, “Mei5–Sae3 stabilizes both active and inactive forms of Dmc1 filaments independently of its impact on ATP hydrolysis” (Nucleic Acids Research, 2025).

Chains of the proteins cited; added tags and fusions are not shown. Where a name states a change or a piece, a line headed by the entry shows the natural chain unless it says otherwise. Chains listed by the source or under a name are the forms on record and can include a tag or linker.
Dmc1-WT + Mei5-Sae3, one chain, as listed by the source, chain 3 of 2: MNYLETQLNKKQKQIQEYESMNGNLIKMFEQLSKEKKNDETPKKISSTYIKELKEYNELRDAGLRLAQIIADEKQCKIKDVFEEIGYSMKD
Dmc1-WT + Mei5-Sae3, one chain, as listed by the source, chain 2 of 2: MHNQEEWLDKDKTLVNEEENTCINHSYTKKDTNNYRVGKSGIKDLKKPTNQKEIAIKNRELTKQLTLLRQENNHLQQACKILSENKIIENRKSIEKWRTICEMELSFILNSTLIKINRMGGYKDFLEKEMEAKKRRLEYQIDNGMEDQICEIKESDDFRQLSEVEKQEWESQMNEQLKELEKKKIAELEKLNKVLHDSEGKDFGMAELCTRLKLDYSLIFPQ

Numbering of substitutions follows the chain as printed. pKd: −log10 of the molar value. For part of these data: Negatives hold for the conditions tested. For part of these data: Weaker means in comparison with the reference protein, sequence or condition of that experiment. For part of these data: Construct, isoform or probe ends are uncertain for at least one entry. For part of these data: Where a protein sequence is shown, tags need not be part of it.

Holding throughout (assay): fluorescence polarization
One data set deals with Dmc1-WT + Mei5-Sae3. The settings on record: no nucleotide cofactor, 400 nM Mei5-Sae3: affinity unchanged; FP: 25 mM HEPES pH 7.5, 1 mM Mg2+, 1 mM ATP, 1 mM DTT, 50 mM NaCl (100 mM in Fig. 3), 100 ug/ml BSA, 0.02% NP-40, 70 uM Ca2+ or as indicated, 3 nM 84-nt ssDNA; recombinant protein; protein details: N-terminal 6xHis,N-terminal 6xHis on Mei5; label: 5' Alexa Fluor 488; single-stranded DNA.

Data set [1] has as its system Mei5-Sae3 (Saccharomyces cerevisiae). The settings on record: 400 nM Mei5-Sae3, NaCl above 100 mM; FP: 25 mM HEPES pH 7.5, 1 mM Mg2+, 1 mM ATP, 1 mM DTT, 50 mM NaCl (100 mM in Fig. 3), 100 ug/ml BSA, 0.02% NP-40, 70 uM Ca2+ or as indicated, 3 nM 84-nt ssDNA; recombinant protein; protein details: N-terminal 6xHis on Mei5; label: 5' Alexa Fluor 488; single-stranded DNA.

Data set [2] deals with T1, Dmc1-WT (Saccharomyces cerevisiae) (UniProt P25453).
T1 sequence (looked up): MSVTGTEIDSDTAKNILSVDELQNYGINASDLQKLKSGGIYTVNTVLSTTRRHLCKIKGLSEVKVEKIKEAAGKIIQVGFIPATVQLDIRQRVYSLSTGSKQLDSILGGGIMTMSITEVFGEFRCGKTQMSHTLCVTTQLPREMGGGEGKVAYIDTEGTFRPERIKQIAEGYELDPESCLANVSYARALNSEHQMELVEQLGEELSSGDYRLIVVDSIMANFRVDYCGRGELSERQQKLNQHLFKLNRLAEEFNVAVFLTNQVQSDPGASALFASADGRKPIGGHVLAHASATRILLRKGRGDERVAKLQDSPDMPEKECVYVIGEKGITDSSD
The settings on record: no nucleotide cofactor; FP: 25 mM HEPES pH 7.5, 1 mM Mg2+, 1 mM ATP, 1 mM DTT, 50 mM NaCl (100 mM in Fig. 3), 100 ug/ml BSA, 0.02% NP-40, 70 uM Ca2+ or as indicated, 3 nM 84-nt ssDNA; recombinant protein; residues 1-334; protein details: N-terminal 6xHis; label: 5' Alexa Fluor 488; single-stranded DNA.

For data set [3], the target named is T2, Dmc1-E157D (Saccharomyces cerevisiae) (UniProt P25453).
T2 sequence (looked up): T1 sequence (looked up) with E157D
The settings on record: ATP, 70 uM Ca2+, FP: 25 mM HEPES pH 7.5, 1 mM Mg2+, 1 mM ATP, 1 mM DTT, 50 mM NaCl (100 mM in Fig. 3), 100 ug/ml BSA, 0.02% NP-40, 70 uM Ca2+ or as indicated, 3 nM 84-nt ssDNA, recombinant protein, residues 1-334, protein details: N-terminal 6xHis, label: 5' Alexa Fluor 488, single-stranded DNA.

Another data set has as its system Dmc1-E157D + Mei5-Sae3. The settings on record: ATP, 100 mM NaCl, 400 nM Mei5-Sae3: no impact on E157D binding; FP: 25 mM HEPES pH 7.5, 1 mM Mg2+, 1 mM ATP, 1 mM DTT, 50 mM NaCl (100 mM in Fig. 3), 100 ug/ml BSA, 0.02% NP-40, 70 uM Ca2+ or as indicated, 3 nM 84-nt ssDNA; recombinant protein; protein details: N-terminal 6xHis,N-terminal 6xHis on Mei5; label: 5' Alexa Fluor 488; single-stranded DNA.

Consider “GGTAGCGGTTGGGTGAGTGGTGGGGAGGGTCGGGAGGTGGCGTAGAAACATGATAGGAATGTGAATGAATGAAGTACAAGTAAA [84 nt-ssDNA]”, for which the binding result in the data set on Dmc1-WT + Mei5-Sae3 was “binds more weakly”; in data set [1], “no binding”; in data set [2] it was “binds more weakly”; in data set [3] (37 C), “binds more weakly”; in the data set on Dmc1-E157D + Mei5-Sae3, “binds more weakly”. Also, the pKd (commonly −log10 of the Kd, conventionally taken in molar units) in data set [3] (100 mM NaCl) was 5.66.
